PubChem BioAssay AID1159593 | NIAID | 2016
This is an unselected part of 756 deposited reagents. 137 of them (18%) count as active. 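Active means p65 translocation went either up or down; genes were judged on the median of six siRNAs, not single siRNAs.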 Reagents against one gene are numbered here. Not given: the amount of reagent.

Aim: 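Canonical TLR pathway genes needed for NF-kappaB activation by LPS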
Cell system: RAW264.7 macrophages of mouse, with reporters for p65 (GFP) and the Tnf promoter (mCherry)
Reagents: single siRNA against mouse genes
Time to read-out: 48 to 72 hours after siRNA transfection, then LPS for 40 min
Treatment: LPS (Salmonella minnesota R595) for 40 min before fixation; dose not given
Measurement: 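High-content imaging of GFP-p65 moving into nuclei after 40 min LPS, plate median/MAD normalised, replicate mean of robust z-score relative to negative controls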
Scale: p65 translocation z-score: higher = more nuclear NF-kappaB p65 after LPS
Call rule: 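z scored in tiers by size in both directions (1, 1.5, 2, 2.5); stated active cut-off missing, but called actives lie near absolute z 1.5 or above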
Meaning of the calls: active = changed p65 translocation (either direction); inactive = no clear change

What is on record for Otud5 (OTU domain containing 5) #1?
p65 translocation z-score: -0.515; Call: inactive

With Otud5 (OTU domain containing 5) #2, what was measured?
p65 translocation z-score: 0.186; Call: inactive

How did the screen score Otud5 (OTU domain containing 5) #3?
p65 translocation z-score: -0.391; Call: inactive

For Otud5 (OTU domain containing 5) #4, what was measured?
p65 translocation z-score: 0.971; Call: inactive

For Otud5 (OTU domain containing 5) #5, how do the results read?
p65 translocation z-score: -0.231; Call: inactive

What is on record for Otud5 (OTU domain containing 5) #6?
p65 translocation z-score: 0.885; Call: inactive

With Btk (Bruton agammaglobulinemia tyrosine kinase) #1, what was measured?
p65 translocation z-score: -0.0989; Call: inactive

What is on record for Btk (Bruton agammaglobulinemia tyrosine kinase) #2?
p65 translocation z-score: -0.72; Call: inactive

With Btk (Bruton agammaglobulinemia tyrosine kinase) #3, what was measured?
p65 translocation z-score: -1.42; Call: inactive

How did the screen score Btk (Bruton agammaglobulinemia tyrosine kinase) #4?
p65 translocation z-score: -2.3; Call: active

What is on record for Btk (Bruton agammaglobulinemia tyrosine kinase) #5?
p65 translocation z-score: -0.83; Call: inactive

What did the screen give for Btk (Bruton agammaglobulinemia tyrosine kinase) #6?
p65 translocation z-score: -0.00458; Call: inactive

How did the screen score Map2k7 (mitogen-activated protein kinase kinase 7) #1?
p65 translocation z-score: 1.11; Call: inactive

What did the screen give for Map2k7 (mitogen-activated protein kinase kinase 7) #2?
p65 translocation z-score: -0.41; Call: inactive

For Map2k7 (mitogen-activated protein kinase kinase 7) #3, what was measured?
p65 translocation z-score: -0.701; Call: inactive

For Map2k7 (mitogen-activated protein kinase kinase 7) #4, how do the results read?
p65 translocation z-score: -1.57; Call: active

What is on record for Map2k7 (mitogen-activated protein kinase kinase 7) #5?
p65 translocation z-score: -0.475; Call: inactive

How did the screen score Map2k7 (mitogen-activated protein kinase kinase 7) #6?
p65 translocation z-score: -0.762; Call: inactive

With Mapk3 (mitogen-activated protein kinase 3) #1, what does the deposit list?
p65 translocation z-score: -1.64; Call: active

For Mapk3 (mitogen-activated protein kinase 3) #2, what was measured?
p65 translocation z-score: 0.736; Call: inactive

What is on record for Mapk3 (mitogen-activated protein kinase 3) #3?
p65 translocation z-score: -0.228; Call: inactive

Which result is listed for Mapk3 (mitogen-activated protein kinase 3) #4?
p65 translocation z-score: 0.312; Call: inactive

What did the screen give for Mapk3 (mitogen-activated protein kinase 3) #5?
p65 translocation z-score: -0.484; Call: inactive

For Mapk3 (mitogen-activated protein kinase 3) #6, what was measured?
p65 translocation z-score: -0.355; Call: inactive

What did the screen give for Dusp2 (dual specificity phosphatase 2) #1?
p65 translocation z-score: -0.566; Call: inactive

With Dusp2 (dual specificity phosphatase 2) #2, how do the results read?
p65 translocation z-score: -4.92; Call: active

For Dusp2 (dual specificity phosphatase 2) #3, what does the deposit list?
p65 translocation z-score: -1.36; Call: inactive

With Dusp2 (dual specificity phosphatase 2) #4, what was measured?
p65 translocation z-score: 0.936; Call: inactive

For Dusp2 (dual specificity phosphatase 2) #5, how do the results read?
p65 translocation z-score: -1.53; Call: active

With Dusp2 (dual specificity phosphatase 2) #6, what does the deposit list?
p65 translocation z-score: 0.609; Call: inactive

What is on record for Nfkb1 #1?
p65 translocation z-score: 2.12; Call: active

What did the screen give for Nfkb1 #2?
p65 translocation z-score: 0.117; Call: inactive

For Nfkb1 #3, how do the results read?
p65 translocation z-score: 0.727; Call: inactive

How did the screen score Nfkb1 #4?
p65 translocation z-score: -0.391; Call: inactive

With Nfkb1 #5, what does the deposit list?
p65 translocation z-score: 0.0882; Call: inactive

For Nfkb1 #6, how do the results read?
p65 translocation z-score: -0.364; Call: inactive

With Nfkbia #1, what does the deposit list?
p65 translocation z-score: -1.73; Call: active

For Nfkbia #2, what was measured?
p65 translocation z-score: -2.87; Call: active

What is on record for Nfkbia #3?
p65 translocation z-score: -1.05; Call: inactive

How did the screen score Nfkbia #4?
p65 translocation z-score: -0.867; Call: inactive

How did the screen score Nfkbia #5?
p65 translocation z-score: -1.71; Call: active

With Nfkbia #6, what was measured?
p65 translocation z-score: 0.274; Call: inactive

Which result is listed for Tlr1 (toll-like receptor 1) #1?
p65 translocation z-score: 0.744; Call: inactive

For Tlr1 (toll-like receptor 1) #2, what does the deposit list?
p65 translocation z-score: -0.0855; Call: inactive

What is on record for Tlr1 (toll-like receptor 1) #3?
p65 translocation z-score: 0.0575; Call: inactive

How did the screen score Tlr1 (toll-like receptor 1) #4?
p65 translocation z-score: -0.559; Call: inactive

For Tlr1 (toll-like receptor 1) #5, what was measured?
p65 translocation z-score: -1.35; Call: inactive

Which result is listed for Tlr1 (toll-like receptor 1) #6?
p65 translocation z-score: 0.153; Call: inactive

In a second layout: results already given.
gene knocked down,siRNA no.,p65 translocation z-score,Call
Nfkb1,3,0.727,inactive
Nfkb1,4,-0.391,inactive
Nfkb1,5,0.0882,inactive
Nfkb1,6,-0.364,inactive
Nfkbia,1,-1.73,active
Nfkbia,2,-2.87,active
Nfkbia,3,-1.05,inactive
